Source: PMC3126838
A weaker result is weaker than the reference pair of the same experiment. Tags and fusion partners may be left off the protein sequences shown.

Target: T1, Nop8p (His-Nop8p) (UniProt Q08287)
T1 sequence (looked up): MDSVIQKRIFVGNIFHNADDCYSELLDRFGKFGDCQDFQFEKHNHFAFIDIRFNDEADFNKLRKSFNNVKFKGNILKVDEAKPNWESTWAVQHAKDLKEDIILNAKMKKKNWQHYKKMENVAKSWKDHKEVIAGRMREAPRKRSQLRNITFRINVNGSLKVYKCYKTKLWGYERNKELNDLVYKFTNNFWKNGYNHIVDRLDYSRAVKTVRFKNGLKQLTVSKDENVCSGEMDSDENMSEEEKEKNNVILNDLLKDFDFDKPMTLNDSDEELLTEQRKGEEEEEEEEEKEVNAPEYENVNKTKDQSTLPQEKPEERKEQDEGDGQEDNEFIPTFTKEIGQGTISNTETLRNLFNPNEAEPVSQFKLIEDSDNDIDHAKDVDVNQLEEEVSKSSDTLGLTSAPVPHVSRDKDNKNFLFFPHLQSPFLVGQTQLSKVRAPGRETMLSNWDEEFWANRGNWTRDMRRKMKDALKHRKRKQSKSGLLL
Test: EMSA
Settings: 1 pmol RNA, binds, but with much lower affinity than poly-AU; EMSA: 1 pmol radiolabeled RNA, 37 C, 30 min, 8% native PAGE; recombinant protein; residues 1-484

“AAAAAAAAAAAAAA [poly-rA 14-mer (poly-A14)]”: binds more weakly.
